In the supplement of paper PMC12067093, “Discovery and optimisation of a covalent ligand for TRIM25 and its application to targeted protein ubiquitination” (Chemical Science, 2025):
The list shows a part of the results.
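Note: competitive chemoproteomic profiling in live THP-1 cells with an iodoacetamide desthiobiotin (IA-DTB) probe, comparing probe-labelled peptide intensities in compound-treated cells against DMSO-treated controls.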

By UniProt entry, the sequences of proteins in these tests, tags left out. Where a name states a change or a piece, a line headed by the entry shows the natural chain unless it says otherwise.
UniProt Q5VTE6: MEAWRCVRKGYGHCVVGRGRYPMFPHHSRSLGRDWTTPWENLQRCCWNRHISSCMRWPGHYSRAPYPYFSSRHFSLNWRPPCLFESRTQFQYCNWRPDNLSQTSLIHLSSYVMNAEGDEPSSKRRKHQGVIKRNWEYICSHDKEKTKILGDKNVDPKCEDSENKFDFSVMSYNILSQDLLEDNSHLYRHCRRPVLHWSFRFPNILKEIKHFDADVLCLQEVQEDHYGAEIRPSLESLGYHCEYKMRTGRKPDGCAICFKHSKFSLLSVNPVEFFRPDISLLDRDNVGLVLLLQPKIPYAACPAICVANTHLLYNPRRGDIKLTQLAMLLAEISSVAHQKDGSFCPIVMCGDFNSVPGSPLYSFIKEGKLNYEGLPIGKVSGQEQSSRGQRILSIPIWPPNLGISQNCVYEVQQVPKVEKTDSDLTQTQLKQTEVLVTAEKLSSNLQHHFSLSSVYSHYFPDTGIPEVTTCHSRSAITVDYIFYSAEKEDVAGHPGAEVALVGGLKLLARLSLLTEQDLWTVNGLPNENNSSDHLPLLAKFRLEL
UniProt P30837: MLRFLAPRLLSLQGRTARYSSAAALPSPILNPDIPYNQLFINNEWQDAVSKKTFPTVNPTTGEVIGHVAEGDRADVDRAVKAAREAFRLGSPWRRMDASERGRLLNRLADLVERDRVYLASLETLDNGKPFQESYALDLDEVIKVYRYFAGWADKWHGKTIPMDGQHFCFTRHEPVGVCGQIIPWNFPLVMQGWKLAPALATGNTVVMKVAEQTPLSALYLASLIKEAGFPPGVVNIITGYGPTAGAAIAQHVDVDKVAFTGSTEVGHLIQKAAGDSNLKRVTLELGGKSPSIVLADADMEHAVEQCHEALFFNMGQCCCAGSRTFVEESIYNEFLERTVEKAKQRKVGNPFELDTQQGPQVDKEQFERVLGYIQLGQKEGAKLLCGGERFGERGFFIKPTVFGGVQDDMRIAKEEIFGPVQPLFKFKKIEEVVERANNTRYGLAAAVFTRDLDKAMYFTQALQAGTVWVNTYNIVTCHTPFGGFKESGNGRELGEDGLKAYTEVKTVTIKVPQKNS
UniProt Q99996, whole entry, looked up: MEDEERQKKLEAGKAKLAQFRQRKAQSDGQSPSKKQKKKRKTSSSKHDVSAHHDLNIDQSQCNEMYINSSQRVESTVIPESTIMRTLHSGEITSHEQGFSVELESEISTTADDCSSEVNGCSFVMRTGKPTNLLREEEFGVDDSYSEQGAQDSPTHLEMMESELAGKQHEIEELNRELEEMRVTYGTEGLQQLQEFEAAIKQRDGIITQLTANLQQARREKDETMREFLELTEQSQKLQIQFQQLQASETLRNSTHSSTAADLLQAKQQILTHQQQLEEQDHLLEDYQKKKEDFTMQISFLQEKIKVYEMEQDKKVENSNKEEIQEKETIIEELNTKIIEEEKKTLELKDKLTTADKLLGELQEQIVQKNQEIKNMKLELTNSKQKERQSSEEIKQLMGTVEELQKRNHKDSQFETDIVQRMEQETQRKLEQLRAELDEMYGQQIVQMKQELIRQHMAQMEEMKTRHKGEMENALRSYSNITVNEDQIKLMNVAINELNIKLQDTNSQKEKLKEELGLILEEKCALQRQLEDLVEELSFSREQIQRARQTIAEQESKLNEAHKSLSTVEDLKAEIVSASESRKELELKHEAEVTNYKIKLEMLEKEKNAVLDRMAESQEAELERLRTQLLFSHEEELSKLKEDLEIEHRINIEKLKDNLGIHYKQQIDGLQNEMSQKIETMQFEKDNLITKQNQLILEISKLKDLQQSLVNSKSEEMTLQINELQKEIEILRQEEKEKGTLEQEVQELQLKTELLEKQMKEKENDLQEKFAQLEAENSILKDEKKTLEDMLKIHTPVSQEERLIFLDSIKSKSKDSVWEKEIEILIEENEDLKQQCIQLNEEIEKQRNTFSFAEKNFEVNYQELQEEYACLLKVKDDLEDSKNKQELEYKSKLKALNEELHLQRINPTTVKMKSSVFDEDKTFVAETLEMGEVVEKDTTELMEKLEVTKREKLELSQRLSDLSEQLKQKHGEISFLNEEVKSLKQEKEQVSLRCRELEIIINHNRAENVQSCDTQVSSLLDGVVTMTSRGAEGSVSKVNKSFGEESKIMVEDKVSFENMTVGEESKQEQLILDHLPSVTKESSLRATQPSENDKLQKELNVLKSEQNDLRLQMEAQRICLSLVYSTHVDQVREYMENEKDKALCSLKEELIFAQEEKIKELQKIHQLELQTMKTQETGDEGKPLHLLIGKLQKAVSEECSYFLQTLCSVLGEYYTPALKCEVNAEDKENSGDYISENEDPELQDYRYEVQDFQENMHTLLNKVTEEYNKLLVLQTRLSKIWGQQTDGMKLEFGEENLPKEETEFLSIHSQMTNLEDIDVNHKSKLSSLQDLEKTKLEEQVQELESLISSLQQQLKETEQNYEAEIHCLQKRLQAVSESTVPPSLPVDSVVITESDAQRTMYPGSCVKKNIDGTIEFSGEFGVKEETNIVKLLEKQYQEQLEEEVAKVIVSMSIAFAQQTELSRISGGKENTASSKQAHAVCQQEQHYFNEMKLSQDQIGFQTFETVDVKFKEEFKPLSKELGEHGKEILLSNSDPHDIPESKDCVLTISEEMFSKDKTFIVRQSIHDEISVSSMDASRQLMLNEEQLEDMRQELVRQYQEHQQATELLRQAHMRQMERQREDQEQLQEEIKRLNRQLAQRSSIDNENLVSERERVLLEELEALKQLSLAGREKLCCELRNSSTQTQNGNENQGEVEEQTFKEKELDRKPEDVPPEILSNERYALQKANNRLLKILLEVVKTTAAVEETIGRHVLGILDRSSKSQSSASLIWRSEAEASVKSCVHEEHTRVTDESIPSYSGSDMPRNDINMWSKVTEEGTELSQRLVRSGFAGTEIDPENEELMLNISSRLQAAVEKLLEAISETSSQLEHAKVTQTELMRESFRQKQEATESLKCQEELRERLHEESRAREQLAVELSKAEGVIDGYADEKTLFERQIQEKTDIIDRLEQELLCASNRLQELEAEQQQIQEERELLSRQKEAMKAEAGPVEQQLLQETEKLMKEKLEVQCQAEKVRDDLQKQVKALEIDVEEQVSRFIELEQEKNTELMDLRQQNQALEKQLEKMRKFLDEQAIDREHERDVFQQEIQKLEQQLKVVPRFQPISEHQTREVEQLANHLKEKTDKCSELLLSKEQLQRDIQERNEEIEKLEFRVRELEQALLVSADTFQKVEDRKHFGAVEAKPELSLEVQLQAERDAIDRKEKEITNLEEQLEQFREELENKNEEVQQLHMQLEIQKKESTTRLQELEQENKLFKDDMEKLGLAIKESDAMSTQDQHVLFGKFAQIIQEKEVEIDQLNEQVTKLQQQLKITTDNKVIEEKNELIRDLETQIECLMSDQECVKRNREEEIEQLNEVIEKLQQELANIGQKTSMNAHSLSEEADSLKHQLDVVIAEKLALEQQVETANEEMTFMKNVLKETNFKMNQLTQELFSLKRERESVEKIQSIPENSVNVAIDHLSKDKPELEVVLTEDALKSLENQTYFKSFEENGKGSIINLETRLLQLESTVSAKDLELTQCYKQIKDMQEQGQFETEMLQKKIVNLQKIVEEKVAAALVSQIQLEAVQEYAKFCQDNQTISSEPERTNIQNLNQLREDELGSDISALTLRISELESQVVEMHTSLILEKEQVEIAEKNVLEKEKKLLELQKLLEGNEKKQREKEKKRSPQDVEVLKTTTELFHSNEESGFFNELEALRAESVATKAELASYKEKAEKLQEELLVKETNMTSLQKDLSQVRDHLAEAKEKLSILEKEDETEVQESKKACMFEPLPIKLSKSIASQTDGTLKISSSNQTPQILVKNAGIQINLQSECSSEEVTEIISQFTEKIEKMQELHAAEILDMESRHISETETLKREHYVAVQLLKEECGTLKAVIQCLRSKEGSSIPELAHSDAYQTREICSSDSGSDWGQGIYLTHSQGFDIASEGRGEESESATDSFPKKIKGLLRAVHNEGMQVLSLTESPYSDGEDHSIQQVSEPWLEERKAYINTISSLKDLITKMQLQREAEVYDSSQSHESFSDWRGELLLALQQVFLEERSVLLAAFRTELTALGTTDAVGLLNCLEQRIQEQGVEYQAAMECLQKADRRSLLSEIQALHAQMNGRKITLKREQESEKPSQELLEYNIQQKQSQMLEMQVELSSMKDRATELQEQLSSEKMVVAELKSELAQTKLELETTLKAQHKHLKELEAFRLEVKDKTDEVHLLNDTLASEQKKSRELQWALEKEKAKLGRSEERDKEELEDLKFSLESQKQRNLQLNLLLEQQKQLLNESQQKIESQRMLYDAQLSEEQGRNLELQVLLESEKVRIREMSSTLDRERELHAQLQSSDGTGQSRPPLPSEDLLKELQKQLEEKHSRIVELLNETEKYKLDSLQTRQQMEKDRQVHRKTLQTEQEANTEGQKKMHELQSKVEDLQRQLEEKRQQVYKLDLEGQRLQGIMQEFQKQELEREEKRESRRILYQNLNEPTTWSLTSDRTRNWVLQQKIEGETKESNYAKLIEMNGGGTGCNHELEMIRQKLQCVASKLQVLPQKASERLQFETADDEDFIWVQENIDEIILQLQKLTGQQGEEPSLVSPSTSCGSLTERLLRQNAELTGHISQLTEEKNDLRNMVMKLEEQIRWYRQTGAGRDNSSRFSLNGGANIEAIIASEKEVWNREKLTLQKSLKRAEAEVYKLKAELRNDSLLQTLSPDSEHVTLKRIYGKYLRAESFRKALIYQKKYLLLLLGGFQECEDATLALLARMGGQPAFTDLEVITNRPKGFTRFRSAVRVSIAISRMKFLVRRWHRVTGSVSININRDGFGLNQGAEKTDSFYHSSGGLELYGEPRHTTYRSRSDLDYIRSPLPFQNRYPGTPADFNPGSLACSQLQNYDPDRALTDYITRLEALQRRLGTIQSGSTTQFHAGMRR
UniProt P30038: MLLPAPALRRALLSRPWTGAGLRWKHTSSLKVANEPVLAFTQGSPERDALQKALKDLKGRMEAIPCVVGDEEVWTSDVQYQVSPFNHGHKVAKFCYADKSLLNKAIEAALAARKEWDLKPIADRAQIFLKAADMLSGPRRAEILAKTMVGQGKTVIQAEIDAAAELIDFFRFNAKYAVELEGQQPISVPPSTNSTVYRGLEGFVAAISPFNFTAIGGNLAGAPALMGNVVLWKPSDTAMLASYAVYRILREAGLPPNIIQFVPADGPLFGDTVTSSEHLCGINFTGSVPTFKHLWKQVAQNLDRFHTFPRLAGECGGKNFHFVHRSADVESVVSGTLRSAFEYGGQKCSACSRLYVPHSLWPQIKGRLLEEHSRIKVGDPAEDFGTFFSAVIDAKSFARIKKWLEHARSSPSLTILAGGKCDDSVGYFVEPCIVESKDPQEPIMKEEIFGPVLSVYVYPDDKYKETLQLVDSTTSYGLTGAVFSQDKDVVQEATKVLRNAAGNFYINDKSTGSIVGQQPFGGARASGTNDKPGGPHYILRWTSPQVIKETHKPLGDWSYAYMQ
UniProt Q13740: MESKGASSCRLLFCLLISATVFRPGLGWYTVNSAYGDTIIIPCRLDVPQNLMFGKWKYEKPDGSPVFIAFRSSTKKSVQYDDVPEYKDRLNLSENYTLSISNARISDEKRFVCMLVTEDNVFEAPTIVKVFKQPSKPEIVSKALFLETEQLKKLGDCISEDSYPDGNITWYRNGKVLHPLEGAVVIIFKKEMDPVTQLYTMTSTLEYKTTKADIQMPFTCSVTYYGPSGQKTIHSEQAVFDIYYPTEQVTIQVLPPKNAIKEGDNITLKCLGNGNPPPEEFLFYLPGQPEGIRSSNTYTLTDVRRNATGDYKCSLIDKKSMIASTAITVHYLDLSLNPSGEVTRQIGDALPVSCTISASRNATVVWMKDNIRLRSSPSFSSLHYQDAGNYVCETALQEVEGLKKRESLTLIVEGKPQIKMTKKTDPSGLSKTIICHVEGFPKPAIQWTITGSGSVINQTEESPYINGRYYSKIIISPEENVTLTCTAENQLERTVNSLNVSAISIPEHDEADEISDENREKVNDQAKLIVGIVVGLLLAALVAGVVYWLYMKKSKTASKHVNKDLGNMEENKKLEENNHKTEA
UniProt Q96BJ3: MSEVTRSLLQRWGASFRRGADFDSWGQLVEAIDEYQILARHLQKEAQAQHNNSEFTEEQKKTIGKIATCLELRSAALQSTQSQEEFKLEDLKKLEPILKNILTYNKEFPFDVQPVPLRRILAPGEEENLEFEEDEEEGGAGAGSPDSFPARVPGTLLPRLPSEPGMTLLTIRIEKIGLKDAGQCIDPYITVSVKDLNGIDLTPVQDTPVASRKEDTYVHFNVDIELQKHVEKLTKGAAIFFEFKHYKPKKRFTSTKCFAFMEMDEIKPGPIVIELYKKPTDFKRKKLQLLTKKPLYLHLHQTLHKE

What follows are targets tested with CC1Cc2ccccc2N1C(=O)C1CCCN(C1)C(=O)CCl (mixture of isomers) [TRIM25 ligand 11 (diastereomer mixture)] (assay: probe-labelled cysteine peptide fold change vs DMSO (competition) (log2 fold change); higher = less target engagement (more negative = stronger competition)). Conditions: 50 µM; THP-1; incubation time: 4 h.
“ANAPC4_Q9UJX5_697_LDEQCSAIPTR (UniProt Q9UJX5)” was tested, and the “probe-labelled cysteine peptide fold change” value was 0.135. With “ANGEL2_Q5VTE6_305_IPYAACPAICVANTHLLYNPR (UniProt Q5VTE6)” the “probe-labelled cysteine peptide fold change” value was -0.0347. For “ALDH18A1_P54886_546_EAVQLVNTREEVEDLCR (UniProt P54886)”, the “probe-labelled cysteine peptide fold change” value was 0.103. With “ALDH1L2_Q3SY69_683_SCAVSNLK (UniProt Q3SY69)” the “probe-labelled cysteine peptide fold change” value was -0.0481. With “ALS2_Q96Q42_916_LLCESSNR (UniProt Q96Q42)” the “probe-labelled cysteine peptide fold change” value was 0.0281. “ALDH1B1_P30837_169_TIPMDGQHFCFTR (UniProt P30837)” was tested, and the “probe-labelled cysteine peptide fold change” value was 0.0642. For “AGL_P35573_528_LDNCHSTPLHVAEYMLDAAR (UniProt P35573)”, the “probe-labelled cysteine peptide fold change” value was -0.445. In the case of “AKAP9_Q99996_1367_ETEQNYEAEIHCLQK (UniProt Q99996)”, the “probe-labelled cysteine peptide fold change” value was -0.0793. For “AKR7A2_O43488_132+156_LQCPQVDLFYLHAPDHGTPVEETLHACQR (UniProt O43488)”, the “probe-labelled cysteine peptide fold change” value was 0.0427. In the case of “AKAP9_Q99996_2125_CSELLLSK (UniProt Q99996)”, the “probe-labelled cysteine peptide fold change” value was 0.0778. “AKR1C3_P42330_242_WVDPNSPVLLEDPVLCALAK (UniProt P42330)” was tested, and the “probe-labelled cysteine peptide fold change” value was -0.0816. For “AMPD2_Q01433_310_TYEQGPDTPVSADAPVHPPALEQHPYEHCEPSTMPGDLGLGLR (UniProt Q01433)”, the “probe-labelled cysteine peptide fold change” value was -0.261. For “ANKFY1_Q9P2R3_1060_GNANLCR (UniProt Q9P2R3)”, the “probe-labelled cysteine peptide fold change” value was 0.0369. With “ALAS1_P13196_124_GSSVFCK (UniProt P13196)” the “probe-labelled cysteine peptide fold change” value was 0.31. In the case of “ALDH2_P05091_66_KTFPTVNPSTGEVICQVAEGDKEDVDK (UniProt P05091)”, the “probe-labelled cysteine peptide fold change” value was -0.271. “ALG2_Q9H553_59_IWTAHYDPGHCFAESR (UniProt Q9H553)” was tested, and the “probe-labelled cysteine peptide fold change” value was -0.018. For “ALDH4A1_P30038_315_LAGECGGK (UniProt P30038)”, the “probe-labelled cysteine peptide fold change” value was 0.0892. With “ALDH7A1_P49419_522_STCTINYSK (UniProt P49419)” the “probe-labelled cysteine peptide fold change” value was 0.148. In the case of “ALCAM_Q13740_313_CSLIDKK (UniProt Q13740)”, the “probe-labelled cysteine peptide fold change” value was 0.107. With “AIDA_Q96BJ3_69_IATCLELR (UniProt Q96BJ3)” the “probe-labelled cysteine peptide fold change” value was 0.146. For “AKR7A2_O43488_132+156_RLQCPQVDLFYLHAPDHGTPVEETLHACQR (UniProt O43488)”, the “probe-labelled cysteine peptide fold change” value was -0.161. In the case of “ALDH9A1_P49189_150_REPLGVCVGIGAWNYPFQIASWK (UniProt P49189)”, the “probe-labelled cysteine peptide fold change” value was -0.0918.
